Literature values in patent US20160250224A1, “OREXIN-CONTROL OF BONE FORMATION AND LOSS” (THE BOARD OF REGENTS OF THE UNIVERSITY OF TEXAS SYSTEM, priority 2013, published 2016).
For at least one compound, name, drawing or mass did not settle the structure.

Test system: 3T3-L1 adipocytes
Settings: PI3K pathway inhibitor; cited from earlier work

## O=c1cc(N2CCOCC2)oc2c(-c3ccccc3)cccc12 [LY294002]
  OXA effects in adipocytes: completely blocks
